PubChem BioAssay AID652272 | Drosophila RNAi Screening Center – 2013
The screen tested about 21,000 reagents; shown is a random part of those with a known target gene and a result. Of all reagents, 503 (2.4%) were called active. 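Raw plate light values, not normalised; calls rest on replicate z-scores that were not deposited; hits include reporter decreases as well as increases.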 The numbers tell different reagents against one gene apart. Names joined by + are all predicted targets of the reagent. Not stated in the record: the amount of reagent, the time to read-out.

Screen: 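Genes whose knock-down decreases or increases Hedgehog reporter output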 (primary screen)
Cell system: Drosophila clone 8 (Cl8) cells
Knock-down reagent: long dsRNA against Drosophila genes
Measurement: 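Firefly light from a Hedgehog-responsive ptc promoter reporter and Renilla reference light, both read on a plate reader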
Scale: firefly Hh reporter signal: higher = more ptc reporter light; Renilla reference signal: higher = more Renilla control light
Call rule: 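Called a hit if the two-replicate mean z-score lies below -2 or above +3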
Meaning of the calls: active = hit: reporter lowered or raised; inactive = not a hit

After knock-down of CG12016 + Dpm2, the screen gave firefly Hh reporter signal, replicate 1 = 70793; firefly Hh reporter signal, replicate 2 = 47456; Renilla reference signal, replicate 1 = 3365; Renilla reference signal, replicate 2 = 1607; inactive.
For slgA (GeneID 33117), the entry reads firefly Hh reporter signal, replicate 1 = 1.68e5; firefly Hh reporter signal, replicate 2 = 1.36e5; Renilla reference signal, replicate 1 = 3853; Renilla reference signal, replicate 2 = 3412; inactive.
eIF3e (GeneID 39877) gave firefly Hh reporter signal, replicate 1 = 1.09e5; Renilla reference signal, replicate 1 = 1392; Renilla reference signal, replicate 2 = 2456; inactive.
For grn (GeneID 40962) #1 the deposit lists firefly Hh reporter signal, replicate 1 = 44000; Renilla reference signal, replicate 1 = 1506; active.
Silencing of grn (GeneID 40962) #2 came out at: firefly Hh reporter signal, replicate 1 = 1.35e5; firefly Hh reporter signal, replicate 2 = 2.06e5; Renilla reference signal, replicate 1 = 5367; Renilla reference signal, replicate 2 = 5212; inactive.
Silencing of CG6154 (GeneID 43184) gave: firefly Hh reporter signal, replicate 1 = 6.38e5; firefly Hh reporter signal, replicate 2 = 1.12e5; Renilla reference signal, replicate 1 = 38993; Renilla reference signal, replicate 2 = 3661; inactive.
Against Prosalpha1R + Prosalpha1, the values are firefly Hh reporter signal, replicate 1 = 38208; firefly Hh reporter signal, replicate 2 = 29920; Renilla reference signal, replicate 1 = 2480; Renilla reference signal, replicate 2 = 2156; inactive.
With knock-down of CG43078 (GeneID 38981) #1 the results were firefly Hh reporter signal, replicate 1 = 57831; firefly Hh reporter signal, replicate 2 = 29235; Renilla reference signal, replicate 1 = 2625; Renilla reference signal, replicate 2 = 1253; inactive.
After knock-down of CG43078 (GeneID 38981) #2, the record shows firefly Hh reporter signal, replicate 1 = 1.00e5; firefly Hh reporter signal, replicate 2 = 67216; Renilla reference signal, replicate 1 = 4038; Renilla reference signal, replicate 2 = 2640; inactive.
For c-cup (GeneID 33360), the values are firefly Hh reporter signal, replicate 1 = 2.00e5; firefly Hh reporter signal, replicate 2 = 1.13e5; Renilla reference signal, replicate 1 = 3952; Renilla reference signal, replicate 2 = 3077; inactive.
Caf1-55 (GeneID 41836) scored firefly Hh reporter signal, replicate 1 = 91345; firefly Hh reporter signal, replicate 2 = 78393; Renilla reference signal, replicate 1 = 4020; Renilla reference signal, replicate 2 = 3035; inactive.
wgn (GeneID 32849) scored firefly Hh reporter signal, replicate 1 = 80679; firefly Hh reporter signal, replicate 2 = 2.02e5; Renilla reference signal, replicate 1 = 1078; Renilla reference signal, replicate 2 = 7755; inactive.
Silencing of schlank (GeneID 50392) #1 gave: firefly Hh reporter signal, replicate 1 = 70725; firefly Hh reporter signal, replicate 2 = 1.83e5; Renilla reference signal, replicate 1 = 2240; Renilla reference signal, replicate 2 = 7356; inactive.
schlank (GeneID 50392) #2 showed firefly Hh reporter signal, replicate 1 = 68969; firefly Hh reporter signal, replicate 2 = 2.49e5; Renilla reference signal, replicate 1 = 2833; Renilla reference signal, replicate 2 = 9248; inactive.

2 of these entries, set out differently:
| target gene | reagent no. | firefly Hh reporter signal, replicate 1 | firefly Hh reporter signal, replicate 2 | Renilla reference signal, replicate 1 | Renilla reference signal, replicate 2 | outcome |
| --- | --- | --- | --- | --- | --- | --- |
| CG6154 (GeneID 43184) | 1 | 6.38e5 | 1.12e5 | 38993 | 3661 | inactive |
| Prosalpha1R + Prosalpha1 | 1 | 38208 | 29920 | 2480 | 2156 | inactive |
